Data: PubChem BioAssay AID2685 (National Center for Advancing Translational Sciences (NCATS), 2010)
The list shows a part of the results. Shown are side measurements of this screen, not its main read-out; they come without a call. Most of these compounds were active or inconclusive in the main read-out, so they are no random draw. The note in brackets gives the kind of curve behind each potency; many fits are weak.

Assay: qHTS Assay for Lipid Storage Modulators in Drosophila S3 Cells;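 on cell number change: cells counted by Cell Tracker Red CMTPX staining in the red channel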
Conditions: BODIPY lipid droplet fluorescence, 18-24 h; for cell number change: measured here: cell count max response, cells fed with added oleic acid
In short: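 Laser-scanning cytometry quantifies lipid droplet accumulation (500–530 nm total intensity; droplet/cell object ratio) in oleic acid-fed (400 uM added) Drosophila S3 cells treated with a concentration series. 20 uM Triacsin C defined 100% inhibition.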

[1] = measured here: cell number channel AC50, cells fed with added oleic acid
[2] = measured here: lipid fluorescence (Fed channel) AC50, cells fed with added oleic acid

SMILES | cell number change [%] | AC50 [1] | AC50 [2]
CCN(CC)C(=O)CN(c1ccc2c(c1)OCO2)S(C)(=O)=O | -52.5 | 29.1 µM [falling, single point] | –
O=C(Nc1ccncc1)C1(c2ccccc2)CCCC1 | 74.7 | 16.4 µM [rising, partial curve, poor fit] | –
Cc1ccc(-c2nc3ccc(NS(=O)(=O)c4ccccc4)cc3[nH]2)o1 | – | 0.058 µM [rising, full curve, poor fit] | 6.51 µM [rising, partial curve, poor fit]
CN1CCN(C(CNC(=O)C(=O)Nc2ccc3c(c2)OCCO3)c2ccc(F)cc2)CC1 (stereo not given) | -0.98 | 1.84 µM [falling, partial curve] | 0.206 µM [falling, full curve, poor fit]
CCCC(=O)NCC(c1cccs1)S(=O)(=O)c1ccc(C)cc1 (stereo not given) | 5.81 | – | 4.11 µM [rising, full curve, poor fit]
O=C1NC(=S)N/C1=C/c1cccn1-c1ccc([N+](=O)[O-])cc1 | 41.9 | – | –
Cc1ccc(NC(=S)Nc2cccc(S(=O)(=O)Nc3c(C)n(C)n(-c4ccccc4)c3=O)c2)cc1 | 37.7 | – | –
CN(C[C@@H](CC1CCCCC1)N(C[C@H](Cc1ccccc1)N(CCc1ccccc1)N=O)N=O)N=O | 11.9 | – | 29.1 µM [rising, single point]
CC(C)(C)N1CC(C(=O)Nc2ccc(S(N)(=O)=O)cc2)CC1=O (stereo not given) | -0.787 | 0.731 µM [falling, single point] | –
Cc1ccc(-n2c(SCC(=O)N3CC(=O)Nc4ccccc43)nc3ccccc3c2=O)cc1 | -14.1 | – | 7.31 µM [falling, partial curve]
CN(c1ccccc1)S(=O)(=O)c1ccc(NC(=O)c2ccccc2)cc1 | 30.1 | 9.2 µM [rising, single point] | 8.2 µM [rising, partial curve, poor fit]
Cc1cccc(COC(=O)C(Cc2ccccc2)NC(N)=O)c1 (stereo not given) | 6.96 | – | 6.51 µM [rising, single point]
O=C(NC1c2ccccc2-c2ccccc21)c1ccccc1 | -4.38 | – | –
O=C(Cc1cccs1)N(Cc1ccco1)C1(C(=O)NC2CCCCC2)CCCCC1 | 3.42 | – | –
O=[N+]([O-])c1cccc(S(=O)(=O)NCc2ccncc2)c1 | – | – | 2.31 µM [falling, partial curve]
COc1ccc(C)cc1S(=O)(=O)N(CC(=O)Nc1ccc2c(c1)OCCO2)Cc1ccccc1 | 71.6 | 2.06 µM [rising, full curve] | 9.2 µM [rising, partial curve]
Cc1cc(N2CCN(C)CC2)nc(N2CCOCC2)n1 | -119 | 25.9 µM [falling, partial curve, poor fit] | 16.4 µM [falling, partial curve]
CS(=O)(=O)N(Cc1ccccc1)c1ccc(C(=O)NCC2CCCO2)cc1 (stereo not given) | 30.4 | – | –
O=C(c1ccccc1)c1ccc(N2CCN(C(=O)c3cccc(F)c3F)CC2)c(F)c1 | -24.6 | – | –
O=C1CC(N2CCN(S(=O)(=O)c3ccc([N+](=O)[O-])cc3)CC2)C(=O)N1c1ccccc1F (stereo not given) | -29.7 | – | 29.1 µM [falling, single point]
O=C(COC(=O)C12CC3CC(CC(C3)C1)C2)Nc1ccccc1F | -32 | 20.6 µM [falling, partial curve, poor fit] | 36.6 µM [falling, partial curve, poor fit]

Pulled by structure from above, 2 records:
SMILES | cell number change [%] | AC50 [1] | AC50 [2]
O=C1NC(=S)N/C1=C/c1cccn1-c1ccc([N+](=O)[O-])cc1 | 41.9 | – | –
O=C(COC(=O)C12CC3CC(CC(C3)C1)C2)Nc1ccccc1F | -32 | 20.6 µM [falling, partial curve, poor fit] | 36.6 µM [falling, partial curve, poor fit]

(more compounds)

SMILES | cell number change [%] | AC50 [1] | AC50 [2]
CCc1nnc(NC(=O)c2cccc(S(=O)(=O)N(C)c3ccccc3)c2)s1 | 43.5 | 3.26 µM [rising, full curve] | –
Cc1cccc(NC(=S)N/N=C/C(C)c2ccccc2)c1C (stereo not given) | -48.1 | – | –
O=C(O)CCC(=O)N1CCN(c2nc3ccccc3s2)CC1 | -2.37 | – | –
CCCN(CC(=O)Nc1ccccc1OC)C(=O)CCC(=O)c1ccc(F)cc1 | – | – | 29.1 µM [falling, single point]
CC(=O)Nc1cccc(NC(=O)CSc2ncc(C(=O)Nc3ccccc3)c(=O)n2C)c1 | -75 | 14.6 µM [falling, partial curve] | 20.6 µM [falling, partial curve]
CCCS(=O)(=O)N1CCCC(C(=O)N2CCOCC2)C1 (stereo not given) | 1.15 | – | –
O=C(Nc1ccc(F)cc1)Nc1ccccc1N1CCCCC1 | -14.9 | – | 20.6 µM [falling, single point]
CN(NC(=O)c1ccccc1F)c1ncccc1[N+](=O)[O-] | 13.7 | – | 1.3 µM [falling, partial curve]
CCn1c2ccccc2c2cc(NC(=O)COC(=O)c3cc(Cl)c(N)cc3OC)ccc21 | 16.4 | – | 0.164 µM [rising, full curve, poor fit]
CCCC1S/C(=N/N=C/c2cccs2)NC1=O (stereo not given) | 6.65 | – | 16.4 µM [rising, single point]
Cc1ccc(S(=O)(=O)N(C)CC(=O)N2CCCCCCC2)cc1 | -11 | – | 0.326 µM [falling, single point]
CCOC(=O)Cc1csc(NC(=O)/C=C/c2ccco2)n1 | -0.245 | – | 9.2 µM [falling, partial curve]
C=CCOc1ccc2oc(=O)cc(C)c2c1 | 2.04 | – | 0.00461 µM [rising, full curve, poor fit]
CC(=O)c1c(C)[nH]c(C(=O)OCC(=O)Nc2cc(Cl)ccc2[N+](=O)[O-])c1C | -17 | – | –
CCC(CC)C(=O)NCCc1ccc(OC)c(OC)c1 | 7.75 | – | –
S=c1[nH]c2ccccc2n2cccc12 | – | – | 0.58 µM [rising, single point]
CCN(CC)c1ccc2c(C)c(CO)c(=O)oc2c1 | 28.6 | – | 4.61 µM [rising, single point]
Cc1csc(=N)n1CC(=O)N1CCc2ccccc21 | 54.1 | 20.6 µM [rising, single point] | –
O=C(Nc1cccc(Cl)c1)c1cc(S(=O)(=O)N2CCOCC2)cs1 | -0.147 | 6.51 µM [rising, single point] | –
O=C(CN1CCN(Cc2ccccc2)C1=O)NCc1cccs1 | -53.3 | 8.2 µM [falling, partial curve] | 0.82 µM [falling, full curve]
